In publication PMC2845649:
Results are given in words; binding and its absence hold for the method and conditions named. Binding seen in cells or lysates may run through a third protein. Some results given as binding are weak or reduced against the parent protein; the word gives no strength.

By UniProt entry, the sequences of proteins in these tests, tags left out. Where a name states a change or a piece, a line headed by the entry shows the natural chain unless it says otherwise.
UniProt P31749: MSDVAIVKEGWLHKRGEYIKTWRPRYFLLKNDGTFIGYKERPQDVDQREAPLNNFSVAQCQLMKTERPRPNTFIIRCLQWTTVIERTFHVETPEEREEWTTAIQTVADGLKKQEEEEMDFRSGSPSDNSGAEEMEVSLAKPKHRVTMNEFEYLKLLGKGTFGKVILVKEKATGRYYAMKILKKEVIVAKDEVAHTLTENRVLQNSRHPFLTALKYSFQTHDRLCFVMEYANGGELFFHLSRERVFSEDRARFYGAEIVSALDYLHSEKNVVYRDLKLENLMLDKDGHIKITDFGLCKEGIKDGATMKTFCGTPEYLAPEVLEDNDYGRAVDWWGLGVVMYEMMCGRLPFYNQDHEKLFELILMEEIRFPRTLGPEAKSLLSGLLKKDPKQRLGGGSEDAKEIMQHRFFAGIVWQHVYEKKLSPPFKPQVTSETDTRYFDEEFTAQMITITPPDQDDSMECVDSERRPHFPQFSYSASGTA
UniProt O43707: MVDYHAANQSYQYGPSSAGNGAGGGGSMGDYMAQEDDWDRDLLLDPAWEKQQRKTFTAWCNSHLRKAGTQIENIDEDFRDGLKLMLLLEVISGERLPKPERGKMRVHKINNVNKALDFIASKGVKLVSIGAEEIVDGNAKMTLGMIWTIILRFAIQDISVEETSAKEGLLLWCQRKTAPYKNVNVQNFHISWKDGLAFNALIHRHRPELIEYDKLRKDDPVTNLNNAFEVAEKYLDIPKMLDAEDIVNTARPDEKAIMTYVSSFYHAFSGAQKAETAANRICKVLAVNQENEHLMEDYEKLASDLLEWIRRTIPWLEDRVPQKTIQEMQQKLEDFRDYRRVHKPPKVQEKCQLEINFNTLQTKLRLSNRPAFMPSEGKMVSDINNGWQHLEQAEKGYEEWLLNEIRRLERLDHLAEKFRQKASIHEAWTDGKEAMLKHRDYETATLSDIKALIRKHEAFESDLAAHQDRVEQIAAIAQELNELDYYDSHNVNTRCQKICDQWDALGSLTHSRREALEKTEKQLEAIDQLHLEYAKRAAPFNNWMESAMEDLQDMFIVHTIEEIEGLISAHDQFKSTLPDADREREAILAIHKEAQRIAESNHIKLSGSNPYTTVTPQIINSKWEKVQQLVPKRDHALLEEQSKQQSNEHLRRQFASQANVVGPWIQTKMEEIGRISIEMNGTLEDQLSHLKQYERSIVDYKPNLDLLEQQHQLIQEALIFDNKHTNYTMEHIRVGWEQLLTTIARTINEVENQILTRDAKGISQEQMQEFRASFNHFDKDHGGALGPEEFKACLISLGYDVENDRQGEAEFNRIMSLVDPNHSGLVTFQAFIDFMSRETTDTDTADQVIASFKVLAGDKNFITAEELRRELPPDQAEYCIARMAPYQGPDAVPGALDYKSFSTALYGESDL

Molecular target: IFPN-AKT1 (UniProt P31749)
Assay: split reporter; protein-fragment complementation of IFP fragments, fluorescence of co-expressing cells; cell line and conditions not told, no figure, sentence ends with ref. 12

binding | Substance
binds | IFPC-ACTN4 (from UniProt O43707 1-911)
no binding | IFPC-ACTN4Δ310-911 (from UniProt O43707 1-309) (domain or fragment)
